# Assay results taken from patent publication US20250197451A1, “USE OF BIOACTIVE POLYPEPTIDE SYNTHESIZED ON BASIS OF KDM2B SEQUENCE IN NEURAL DIFFERENTIATION AND REGENERATION AND REPAIR OF MESENCHYMAL STEM CELLS” (CAPITAL MEDICAL UNIVERSITY SCHOOL OF STOMATOLOGY, priority 2021, published 2025).
# Protein sequences, listed by entry. Tags and fused reporters are not part of them.
# UniProt Q15910: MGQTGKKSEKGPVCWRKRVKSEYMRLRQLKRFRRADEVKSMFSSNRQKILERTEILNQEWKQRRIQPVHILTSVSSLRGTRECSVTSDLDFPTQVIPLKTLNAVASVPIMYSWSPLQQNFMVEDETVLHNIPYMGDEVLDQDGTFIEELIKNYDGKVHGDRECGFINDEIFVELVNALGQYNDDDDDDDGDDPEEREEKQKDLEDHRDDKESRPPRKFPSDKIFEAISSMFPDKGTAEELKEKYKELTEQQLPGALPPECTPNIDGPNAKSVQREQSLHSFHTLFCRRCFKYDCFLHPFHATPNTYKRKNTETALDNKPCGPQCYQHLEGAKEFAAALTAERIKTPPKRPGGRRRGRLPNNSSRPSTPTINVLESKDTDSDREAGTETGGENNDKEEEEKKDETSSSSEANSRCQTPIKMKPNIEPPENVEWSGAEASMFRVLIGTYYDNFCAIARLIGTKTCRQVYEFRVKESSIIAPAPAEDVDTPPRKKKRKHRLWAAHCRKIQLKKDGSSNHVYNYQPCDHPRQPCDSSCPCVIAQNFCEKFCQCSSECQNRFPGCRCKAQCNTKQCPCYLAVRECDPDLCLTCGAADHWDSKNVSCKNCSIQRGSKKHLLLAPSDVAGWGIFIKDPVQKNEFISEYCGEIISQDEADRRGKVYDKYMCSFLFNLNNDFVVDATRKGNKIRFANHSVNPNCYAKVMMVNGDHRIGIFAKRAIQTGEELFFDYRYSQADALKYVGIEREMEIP
# Results are given in words; binding and its absence hold for the method and conditions named. Some binding calls cover weakened binding; strength is not graded here.
# Target: biotin-labelled EZH2 protein (UniProt Q15910)
# Assay: KDM2B peptide array probed with biotin-EZH2; positive colored point
row,binding,Binder
1,binds,CIAPVLPHTAVCLVC [peptide 131]
2,binds,EGVVNDELPNCWECP [peptide 142]
3,binds,LPHTAVCLVCGEAGK [peptide 132]
4,binds,AEKQKKKTVIYTKCF [peptide 5]
5,binds,VKKYCLMSVKGCFTD [peptide 46]
6,binds,LSGCSWIAVSALCSS [peptide 232]
7,binds,WIAVSALCSSSCPLL [peptide 233]
8,binds,DNKEGQEPAKRRSEC [peptide 152]
9,binds,TRCRKCEACLRTECG [peptide 123]
10,binds,CNEIIHPGCLKIKES [peptide 139]
11,binds,QEPAKRRSECEEAPR [peptide 153]
12,binds,ARRRRTRCRKCEACL [peptide 122]
13,binds,LRDLVLSGCSWIAVS [peptide 231]
14,binds,QKMNRDNKEGQEPAK [peptide 151]
15,binds,LMSVKGCFTDFHIDF [peptide 47]
